From publication doi:10.1101/796524

How the values were obtained:
[1] = molecular target: XPF-ERCC1 endonuclease (wild type heterodimer) (human); assay: co-purification
[2] = molecular target: XPF(323-326Δ)-ERCC1 (Fanconi anaemia mutant heterodimer) (human); assay: co-purification

B1: SLX4 NTD (residues 1-758) (domain or fragment, UniProt Q8IY92-1 1-758)
chain: MKLSVNEAQLGFYLGSLSHLSACPGIDPRSSEDQPESLKTGQMMDESDEDFKELCASFFQRVKKHGIKEVSGERKTQKAASNGTQIRSKLKRTKQTATKTKTLQGPAEKKPPSGSQAPRTKKQRVTKWQASEPAHSVNGEGGVLASAPDPPVLRETAQNTQTGNQQEPSPNLSREKTRENVPNSDSQPPPSCLTTAVPSPSKPRTAQLVLQRMQQFKRADPERLRHASEECSLEAAREENVPKDPQEEMMAGNVYGLGPPAPESDAAVALTLQQEFARVGASAHDDSLEEKGLFFCQICQKNLSAMNVTRREQHVNRCLDEAEKTLRPSVPQIPECPICGKPFLTLKSRTSHLKQCAVKMEVGPQLLLQAVRLQTAQPEGSSSPPMFSFSDHSRGLKRRGPTSKKEPRKRRKVDEAPSEDLLVAMALSRSEMEPGAAVPALRLESAFSERIRPEAENKSRKKKPPVSPPLLLVQDSETTGRQIEDRVALLLSEEVELSSTPPLPASRILKEGWERAGQCPPPPERKQSFLWEGSALTGAWAMEDFYTARLVPPLVPQRPAQGLMQEPVPPLVPPEHSELSERRSPALHGTPTAGCGSRGPSPSASQREHQALQDLVDLAREGLSASPWPGSGGLAGSEGTAGLDVVPGGLPLTGFVVPSQDKHPDRGGRTLLSLGLLVADFGAMVNNPHLSDVQFQTDSGEVLYAHKFVLYARCPLLIQYVNNEGFSAVEDGVLTQRVLLGDVSTEAARTFLHYLYTA
**Q.** Which binding [1] does the source give for B1 here?
**A.** binds

**Q.** What about the binding [2] of the same binder?
**A.** binds

These are yes or no findings as the source states them, for the method shown. Binding seen in cells or lysates may run through a third protein. Binding can be weak; no strength is given.
